Data published in publication doi:10.1101/2024.03.15.585069.

T1: GSRhino-TAP-tagged CP2 (CUPULIFORMIS2) (Arabidopsis thaliana) (UniProt P0DO23)
T1 sequence: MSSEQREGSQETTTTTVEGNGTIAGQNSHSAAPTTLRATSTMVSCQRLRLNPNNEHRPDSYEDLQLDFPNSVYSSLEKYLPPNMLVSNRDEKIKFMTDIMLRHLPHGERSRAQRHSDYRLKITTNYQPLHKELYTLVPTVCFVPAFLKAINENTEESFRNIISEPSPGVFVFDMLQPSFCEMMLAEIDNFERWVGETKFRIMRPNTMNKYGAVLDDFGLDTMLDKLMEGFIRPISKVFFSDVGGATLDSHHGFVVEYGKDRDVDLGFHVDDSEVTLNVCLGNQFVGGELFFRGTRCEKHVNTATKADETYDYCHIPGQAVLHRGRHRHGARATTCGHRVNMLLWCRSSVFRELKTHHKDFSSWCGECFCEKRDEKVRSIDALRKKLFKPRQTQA

T2: GSRhino-TAP-tagged ICU11 (INCURVATA11) (Arabidopsis thaliana) (UniProt Q3ED68)
T2 sequence: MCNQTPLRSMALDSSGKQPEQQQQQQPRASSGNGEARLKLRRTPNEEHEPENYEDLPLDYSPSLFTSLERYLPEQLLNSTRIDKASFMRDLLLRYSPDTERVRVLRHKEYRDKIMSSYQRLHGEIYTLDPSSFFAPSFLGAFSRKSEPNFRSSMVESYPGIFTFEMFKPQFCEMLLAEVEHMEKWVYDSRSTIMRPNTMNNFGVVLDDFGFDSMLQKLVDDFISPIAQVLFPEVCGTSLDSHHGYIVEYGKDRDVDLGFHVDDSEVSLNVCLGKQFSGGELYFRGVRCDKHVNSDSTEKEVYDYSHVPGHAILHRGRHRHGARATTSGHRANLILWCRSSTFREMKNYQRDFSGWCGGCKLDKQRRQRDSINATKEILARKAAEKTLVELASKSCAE

T3: GSRhino-TAP-tagged ICU11 (INCURVATA11) (Arabidopsis thaliana), Q3ED68
T3 chain: T2 sequence

B1: INCREASE IN BONSAI …ON 1 (IBM1) (protein, UniProt Q9SSE9 1-1027)
chain: MDSVEEEGVVRVEEENGRGGLRRHRRVSTKLANYVDPPTDDEEDGGPKRKGKRGGNRAPKKTPKKDEEMQKNEIDEANRVTGLVKEKRAATKILNRKDSIIEVGEASGSMPKEVKGIRIGKRKGEIDGEIPTKPGKKPKTTVDPRIIGYRPDNMCHQCQKSDRIVERCQTCNSKRYCHPCLDTWYPLIAKEDVAKKCMFCSSTCNCRACLRLDTKLKGINSNLIVSEEEKVQASKFILQSLLPHLKGINDEQVAEKEVEAKIYGLKFEEVRPQDAKAFPDERLYCDICKTSIYDLHRNCKSCSFDICLSCCLEIRNGKALACKEDVSWNYINRGLEYEHGQEGKVIEKPANKLDDKLKDKLDGKPDDKPKGKPKGRPKGKPDDKPKGKLKGKQDDKPDDKPDEKPVNTDHMKYPSLWKANEAGIITCCCGAGELVLKRLLPDGWISELVNRVEKTAEAGELLNLPETVLERCPCSNSDRHIDIDSCNLLKAACREGSEDNYLYSPSVWDVQQDDLKHFQHHWVKGEPVIVRNVLEATSGLSWEPMVMHRACRQISHVQHGSLKDVVAVDCLDFCEVKVNLHEFFTGYTDGRYDRMGWPLVLKLKDWPPAKVFKDNLPRHAEEFLCSLPLKHYTHPVNGPLNLAVKLPQNCLKPDMGPKTYVASGFAQELGRGDSVTKLHCDMSDAVNILTHISEVPNMQPGIGNLKKKHAEQDLKELYSSVANKEEMMEILENSRQQVQNVETDDGALWDIFRREDIPKLESYIEKHHKEFRHLYCCPVSQVVHPIHDQNFYLTRYHIMKLKEEYGIEPWTFNQKLGDAVLIPVGCPHQVRNLKSCNKVALDFVSPENVSECLRLTKQYRLLPPNHFAKEDKLGVKKMIVHAVDKALRDLSGEKSPEPEEKKQNMRGPKKGAAKAVAKALKDLSPSEKKSSEAAEEEISNGIVNAIDKGLKDLPPSEEKSSEAKVEISNGIVSAMDKDLEHISSSEKKSTEEEGVKRPNIVRTYERRKKLGSEVTNAYIDRLEMEKM
B2: NAC DOMAIN CONTAINING PROTEIN 50 (NAC050) (protein, UniProt Q9SQX9 1-447)
chain: MGRESLAVVSSPPSATAPSTAVSATSLAPGFRFHPTDEELVSYYLKRKVLGKPVRFDAIGEVDIYKHEPWDLAVFSKLKTRDQEWYFFSALDKKYGNGARMNRATNKGYWKATGKDREIRRDIQLLGMKKTLVFHSGRAPDGLRTNWVMHEYRLVEYETETNGSLLQDAYVLCRVFHKNNIGPPSGNRYAPFMEEEWADGGGALIPGIDVRVRVEALPQANGNNQMDQEMHSASKDLININELPRDATPMDIEPNQQNHHESAFKPQESNNHSGYEEDEDTLKREHAEEDERPPSLCILNKEAPLPLLQYKRRRQNESNNNSSRNTQDHCSSTITTVDNTTTLISSSAAAATNTAISALLEFSLMGISDKKENQQKEETSPPSPIASPEEKVNDLQKEVHQMSVERETFKLEMMSAEAMISILQSRIDALRQENEELKKKNASGQAS
B3: NAC052 (protein, UniProt Q9SQY0 1-451)
chain: MGRESVAVVTAPPSATAPGTASVATSLAPGFRFHPTDEELVSYYLKRKVLGQPVRFDAIGEVDIYKHEPWDLAVFSRLKTRDQEWYFYSALDKKYGNGARMNRATNRGYWKATGKDREIRRDILLLGMKKTLVFHSGRAPDGLRTNWVMHEYRLVEYETEKNGNLVQDAYVLCRVFHKNNIGPPSGNRYAPFMEEEWADDEGALIPGIDVKLRLEPPPVANGNDQMDQEIQSASKSLININEPPRETAPLDIESDQQNHHENDLKPEEHNNNNNYDENEETLKREQMEEEERPPRPVCVLNKEAPLPLLQYKRRRQSESNNNSSRNTQDHCSSTTTTVDNTTTLISSSAAATNTAISALLEFSLMGISDKKEKPQQPLRPHKEPLPPQTPLASPEEKVNDLQKEIHQMSVERETFKLEMMSAEAMISILQSRIDALRQENEELKKNNANGQ
B4: COP9 SIGNALOSOME SUBUNIT 1 (CSN1) (protein, UniProt P45432 1-441)
chain: MERDEEASGPMMEMCTNGGEETSNRRPIISGEPLDIEAYAALYKGRTKIMRLLFIANHCGGNHALQFDALRMAYDEIKKGENTQLFREVVNKIGNRLGEKYGMDLAWCEAVDRRAEQKKVKLENELSSYRTNLIKESIRMGYNDFGDFYYACGMLGDAFKNYIRTRDYCTTTKHIIHMCMNAILVSIEMGQFTHVTSYVNKAEQNPETLEPMVNAKLRCASGLAHLELKKYKLAARKFLDVNPELGNSYNEVIAPQDIATYGGLCALASFDRSELKQKVIDNINFRNFLELVPDVRELINDFYSSRYASCLEYLASLKSNLLLDIHLHDHVDTLYDQIRKKALIQYTLPFVSVDLSRMADAFKTSVSGLEKELEALITDNQIQARIDSHNKILYARHADQRNATFQKVLQMGNEFDRDVRAMLLRANLLKHEYHARSARKL
B5: TRB2, endogenous (protein, UniProt Q9FJW5 1-299)
chain: MGAPKQKWTPEEEAALKAGVLKHGTGKWRTILSDTEFSLILKSRSNVDLKDKWRNISVTALWGSRKKAKLALKRTPPGTKQDDNNTALTIVALTNDDERAKPTSPGGSGGGSPRTCASKRSITSLDKIIFEAITNLRELRGSDRTSIFLYIEENFKTPPNMKRHVAVRLKHLSSNGTLVKIKHKYRFSSNFIPAGARQKAPQLFLEGNNKKDPTKPEENGANSLTKFRVDGELYMIKGMTAQEAAEAAARAVAEAEFAITEAEQAAKEAERAEAEAEAAQIFAKAAMKALKFRIRNHPW
B6: JMJ14, Q8GUI6 1-954 (protein)
chain: MDQLASLAESVAMEEDSEKQSIKGESSLEPDSTPSSPKITARWNPSEACRPLVDDAPIFYPTNEDFDDPLGYIEKLRSKAESYGICRIVPPVAWRPPCPLKEKKIWENSKFPTRIQFIDLLQNREPIKKSTKTKKRKRRRISKIGYTRRKRDSGCDTASSGSSDSEGKFGFQTGPDFTLEEFQKYDEYFKECYFQSEDHPGSKASENKKFKPKVKDLEGEYWRIVEQATDEVEVYYGADLETKKFGSGFPKYKPGYPISEADQYSQCGWNLNNLSRLPGSVLAFESCDISGVIVPWLYVGMCFSTFCWHVEDHHLYSMNYLHTGDPKVWYGIPGNHAESFENVMKKRLPDLFEEQPDLLHQLVTQLSPRILKEEGVPVYRAVQRSGEFILTFPKAYHSGFNCGFNCAEAVNVAPVDWLVHGQNAVEGYSKQRRKSSLSHDKLLLGAAMEATYCLWELSLSKKKTPVIARWKRVCSEDGLLTKAVKKRVQMEEERLNHLQDGFSLRKMEGDFDNKRERECFLCFYDLHMSASSCKCSPNRFACLIHAKDLCSCESKDRYILIRHTLDELWALVRALEGDLDAIDLWASKCRDQYPSQHPRAREYAYLKSAPCIKSRGSSKVQQREQNNLQLVSERLQSDLTSNKEVQLKQDGDSDVNRHGHESERNHVHGITDKSAVTDVKLGVGGKFDEKKISVESQNPHSVSDVGCSELAKKVDGCLGGKDQNAATNRLSLSVELLSSGSLVVKKLWCSKQAIYPKGFKSRVKFLSVLDPTNLTNYISEVLDAGLLGPLFRVSVEDYPTENFSNVSAEKCWQMVTQRLKLEIIKKCDQPVSSLTSLQPLESINGLEMFGFLSPHVIKVVEALDPKHQLEEYWNQKAVKLFGAEPIKEGEKDDTEKGGASDPSLDRDTRLLRGLLKKATPEELVMMHGLLCGETRNTELKEELSTLVDKMEISP
B7: INCURVATA11 (ICU11), endogenous (protein, UniProt Q3ED68 1-397)
chain: T2 sequence

Experiments:
Test in all cases: affinity purification with mass spectrometry
[1] = target: T1, GSRhino-TAP-tagged CP2 (CUPULIFORMIS2) (Arabidopsis thaliana)
[2] = target: T2, GSRhino-TAP-tagged ICU11 (INCURVATA11) (Arabidopsis thaliana)
[3] = target: T3, GSRhino-TAP-tagged ICU11 (INCURVATA11) …; details: remark: other sources report otherwise

Binder | binding [1] | binding [2] | binding [3]
B1 | binds | – | –
B2 | binds | binds | –
B3 | binds | binds | –
B4 | binds | binds | –
B5 | no binding | binds | –
B6 | – | – | no binding
B7 | no binding | – | –

Results are given in words; binding and its absence hold for the method and conditions named. Binding seen in cells or lysates may run through a third protein. A yes stands for co-enrichment or nearness to the bait. Other partners may have been found. For some assays here: No binding means not detected with the bait. Sequences can lack the tags named with a protein.
